Laboratory results: patent US20190374627A1, “TARGET PEPTIDES FOR CANCER THERAPY AND DIAGNOSTICS” (priority 2016, published 2019)
Some results were stated once for a whole list of compounds, not compound by compound.

System: CD8^+ T cells (PBMCs)
Test: Intracellular cytokine staining (ICS) of PBMCs after 7 days of stimulation with MHC-I-pP (healthy donors, HH patients)
Type: cell-based, human
Conditions: Boolean combinatorial gates CD107a/IFNg/TNFa, FIG. 7
Experimental: From this, CD8^+ T cell responses against newly identified MHC class I-associated phosphopeptides in healthy individuals and patients with chronic liver disease were investigated. Twenty-one of the newly identified HCC-associated HLA-A*0201-restricted phosphopeptides were selected (see Table 17) for further immunological testing in HLA-A*0201 positive patients. MHC-I-pP-specific cytotoxic CD8^+ T cell responses (ppCTL) were assessed using intracellular cytokine staining (ICS) and several cytokines and surface markers were assessed in parallel. After 7 days of stimulation with the respective MHC-I-pP and no other cytokines, CD3- and CD8-expressing T cells were stained for at least two different cytokines (IFN-γ, TNF-α) and when required CD107a expression as a marker for their cytotoxic potential.
First, peripheral blood mononuclear cells (PBMCs) from healthy donors and patients with hereditary hemochromatosis (HH) were analyzed. HH is a chronic liver disease characterized by excessive intestinal absorption of dietary iron resulting in a pathological deposition of iron in the liver. PBMCs or lymphocytes from liver tissue were extracted and specifically stimulated with (phospho-) peptides for 7 days before intracellular cytokine staining (ICS). […] Lymphocytes were gated on CD3^+ and CD8^+ double positive cells and were analysed for expression of IFNγ, TNFα-, and CD107a.

AVVsPPALHNA: BRD4 phosphopeptide, HLA-A*0201 (AVVSPPALHNA; phosphoserine; (5)...(5) The amino acid at this position is optionally phosphorylated; listed as Homo sapiens)
reactive cells (cytokine producing or degranulating T cells): > 1%
